Results: PubChem BioAssay AID493014 (National Center for Advancing Translational Sciences (NCATS), 2011)
Some of the results follow. Further columns of the screen follow, without active or inactive calls. The list favours compounds with an active or inconclusive main result. Potencies come from curve fits of mixed quality, noted in brackets.

Assay: qHTS Assay to Find Inhibitors of Chronic Active B-Cell Receptor Signaling
Settings: ABC-DLBCL IkBa-CBG/CBR reporter, luminescence ratio (green luciferase fused to IkBa over red control in TMD8 lymphoma cells), 4 h; measured here: CBR red luminescence, cell number
How it was run: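 Cell line TMD8 (human ABC DLBCL), stably expressing tet-inducible CBG68-IkBa fusion and CBR; IMDM/0.5% FBS; cpd up to 46 uM; dox induction, 4 h, 37C/5% CO2; dual luminescence; green/red ratio; MG132 control.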

| Compound | AC50 |
| --- | --- |
| CCn1c(O)c(N=Nc2ccc(S(=O)(=O)N3CCOCC3)cc2)c(=O)n(CC)c1=S | 0.1 µM [falling, full curve, poor fit] |
| CCCCOC(=O)c1ccccc1C(=O)OCc1ccccc1 | 16.4 µM [rising, single point] |
| COc1ccc(Cn2c(N)c(C(=O)NCc3ccco3)c3nc4ccccc4nc32)cc1 | 5.62 µM [falling, full curve] |
| COc1cccc(C(=O)NCC(=O)N2CCC(C)CC2)c1 | 12.6 µM [falling, partial curve] |
| O=[N+]([O-])c1ccc(N2CCNCC2)cc1NCc1ccco1 | 29.1 µM [rising, single point] |
| C=CCn1c(O)c(C(C)=NCc2ccc3c(c2)OCO3)c(=O)[nH]c1=O | 11.2 µM [falling, partial curve, poor fit] |
| FC(F)(F)/C(=N\P(=S)(N1CCOCC1)N1CCOCC1)N1CCOCC1 | 0.651 µM [falling, full curve, poor fit] |
| O=c1[nH]c(=O)n(Cc2ccco2)c(O)c1C=NCCCn1ccnc1 | 29.1 µM [falling, partial curve, poor fit] |
| CCc1c(C)nc(N)nc1N1N=C1SC(C(C)=O)C(C)=O | 6.31 µM [falling, full curve] |
| CCOc1ccc(-n2c(O)c(C=NCCCn3ccnc3)c(=O)[nH]c2=O)cc1 | 20.6 µM [rising, partial curve, poor fit] |
| CCc1ccc(N2C(=O)NC(=O)/C(=C/c3ccsc3)C2=O)cc1 | 31.6 µM [rising, single point] |
| COc1cccc(CNCCc2c[nH]c3ccccc23)c1OCc1ccccc1F | 10 µM [falling, partial curve, poor fit] |
| CC1CCC(N2CCN(C(=O)COc3ccccc3)CC2)CC1 (stereo not given) | 35.5 µM [rising, single point] |
| COc1ccc(OC)c(C(c2c(O)c3ccccc3oc2=O)c2c(C)n(C)n(-c3ccccc3)c2=O)c1 (stereo not given) | 1.41 µM [falling, full curve] |
| CCCCNC(=O)c1c(N)n(CCCOC)c2nc3ccccc3nc12 | 23.1 µM [falling, single point] |
| Cc1cnc(-n2c(=S)[nH]c3ccccc3c2=O)s1 | 13 µM [rising, partial curve, poor fit] |
| CC(C)[C@@]1(NC(=O)[C@@H]2C[C@@H]3c4cccc5[nH]cc(c45)C[C@H]3N(C)C2)O[C@@]2(O)[C@@H]3CCCN3C(=O)[C@H](Cc3ccccc3)N2C1=O | 20 µM [falling, single point] |
| O=C1CN=C(c2cccc(Br)c2)c2cc(Br)ccc2N1 | 0.1 µM [rising, full curve, poor fit] |
| O=c1[nH]c(=S)[nH]c(O)c1N=Nc1ccc2c(c1)OCCO2 | 3.16 µM [falling, full curve] |
| Cn1c(/C=C/c2ccc(Cl)cc2)c([N+](=O)[O-])c(=O)n(C)c1=O | 17.8 µM [falling, partial curve, poor fit] |

| Compound | AC50 |
| --- | --- |
| COc1ccc2[nH]c3c(c2c1)CCN=C3C | 9.2 µM [falling, partial curve, poor fit] |
| Cc1c(C(=O)N2CCC3(CC2)OCCO3)oc2ccccc12 | 7.31 µM [rising, partial curve, poor fit] |
| Cc1c(N=Cc2c(O)n(CCc3ccc(F)cc3)c(=O)[nH]c2=O)c(=O)n(-c2ccccc2)n1C | 29.1 µM [falling, single point] |
| COC(=O)C1=C(c2ccc(F)cc2OCc2ccccc2)C[C@@H]2CC[C@H]1N2C(=O)NC1CCN(Cc2ccccc2)CC1 | 29.1 µM [falling, single point] |
| CCOc1ccc(C2C(C#N)=C(N)Oc3c2c(=O)oc2ccccc32)cc1 (stereo not given) | 1.26 µM [falling, full curve, poor fit] |
| CCN(CC)c1ccc(CNCCc2ccc(F)cc2)cc1 | 35.5 µM [falling, single point] |
| C/C(=N\NC(=O)c1ccccc1)c1c(O)n(Cc2ccccc2)c(=O)[nH]c1=O | 7.94 µM [falling, partial curve] |
| Clc1cc(Cl)cc(NC2=NCCS2)c1 | 5.62 µM [rising, single point] |
| CC(=NCCCN1CCCCC1)c1c(O)n(Cc2ccccc2)c(=O)[nH]c1=O | 29.1 µM [falling, single point] |
| CC(C)C(=O)Nc1nnc(CCN(CCc2nnc(NC(=O)C(C)C)s2)[N+](=O)[O-])s1 | 0.501 µM [rising, full curve, poor fit] |
| CCN(CC)C(=O)c1ccc(NC(=O)C2=C(C)OCCS2)cc1 | 3.98 µM [rising, single point] |
| Cc1nc2ccc(Cl)cc2c(=O)n1-c1cccc(Cl)c1 | 7.08 µM [rising, full curve, poor fit] |
| CCC12C=CCN3CCC4(c5cc(Br)c(OC)cc5N(C)C4C(O)(C(=O)OC)C1OC(C)=O)C32 (stereo not given) | 12.6 µM [falling, single point] |
| COc1cc2c(cc1OC)C(/C=C/c1ccco1)=NCC2 | 35.5 µM [falling, partial curve, poor fit] |
| O=C(C[N+]12CCC(CC1)C(C(O)(c1ccccc1)c1ccccc1)C2)c1ccc(Br)cc1 (stereo not given) | 35.5 µM [falling, single point] |
| O=c1cc(-c2ccc(Cl)cc2)oc(=O)[nH]1 | 2.82 µM [rising, partial curve, poor fit] |
| C[C@]12CCC3C(CC[C@H]4C[C@@H](O)CC[C@]34C)[C@H]1CC[C@H]2O (stereo not given in full) | 32.6 µM [rising, partial curve, poor fit] |
| CCN1CCN(C(=O)Cc2coc3ccc4ccccc4c23)CC1 | 6.51 µM [falling, single point] |
| Cn1c(O)c(C=NCCOc2ccc(Cl)cc2)c(=O)n(C)c1=O | 14.1 µM [falling, single point] |
| Cc1ccc(-n2c(O)c(C=NCc3ccco3)c(=O)[nH]c2=S)cc1C | 2.24 µM [rising, partial curve, poor fit] |

Some values from the entries so far:
AC50, C[C@]12CCC3C(CC[C@H]4C[C@@H](O)CC[C@]34C)[C@H]1CC[C@H]2O (stereo not given in full) reads 32.6 µM [rising, partial curve, poor fit]
AC50, CCN(CC)c1ccc(CNCCc2ccc(F)cc2)cc1 reads 35.5 µM [falling, single point]
AC50, CC1CCC(N2CCN(C(=O)COc3ccccc3)CC2)CC1 (stereo not given) reads 35.5 µM [rising, single point]
